No constants are given. Whether binding was seen depends on the method and setting. Binding seen in cells or lysates may run through a third protein. Some results given as binding are weak or reduced against the parent protein; the word gives no strength. Sequences can lack the tags named with a protein.
T1: Reg1-P231S-FLAG (S. cerevisiae) (UniProt Q00816)
T1 sequence: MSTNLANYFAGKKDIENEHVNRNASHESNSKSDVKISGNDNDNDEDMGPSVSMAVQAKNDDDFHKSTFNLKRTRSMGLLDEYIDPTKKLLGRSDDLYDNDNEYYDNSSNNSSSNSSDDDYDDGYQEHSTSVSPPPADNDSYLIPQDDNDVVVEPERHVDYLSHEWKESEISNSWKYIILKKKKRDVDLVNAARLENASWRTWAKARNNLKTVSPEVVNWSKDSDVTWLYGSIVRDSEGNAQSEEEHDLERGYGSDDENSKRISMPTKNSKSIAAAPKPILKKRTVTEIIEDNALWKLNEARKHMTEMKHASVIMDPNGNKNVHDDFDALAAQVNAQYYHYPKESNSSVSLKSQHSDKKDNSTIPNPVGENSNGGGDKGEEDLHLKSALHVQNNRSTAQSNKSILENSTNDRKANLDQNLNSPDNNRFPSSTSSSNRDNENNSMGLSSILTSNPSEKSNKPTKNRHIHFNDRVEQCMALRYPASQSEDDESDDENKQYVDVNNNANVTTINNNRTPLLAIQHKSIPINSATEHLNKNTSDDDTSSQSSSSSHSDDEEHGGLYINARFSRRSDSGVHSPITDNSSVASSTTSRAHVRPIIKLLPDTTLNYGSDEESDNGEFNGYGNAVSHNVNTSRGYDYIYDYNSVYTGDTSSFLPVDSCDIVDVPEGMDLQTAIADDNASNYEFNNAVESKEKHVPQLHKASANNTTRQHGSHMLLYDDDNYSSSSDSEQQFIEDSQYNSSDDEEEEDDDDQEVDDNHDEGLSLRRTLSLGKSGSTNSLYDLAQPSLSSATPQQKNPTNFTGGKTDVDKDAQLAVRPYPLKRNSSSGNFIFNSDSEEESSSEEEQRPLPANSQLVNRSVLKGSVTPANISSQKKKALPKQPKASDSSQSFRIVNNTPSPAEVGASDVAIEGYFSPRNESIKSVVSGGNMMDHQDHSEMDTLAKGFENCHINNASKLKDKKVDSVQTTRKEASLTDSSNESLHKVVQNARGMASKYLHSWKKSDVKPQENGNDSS

By UniProt entry, the sequences of proteins in these tests, tags left out.
UniProt P32598: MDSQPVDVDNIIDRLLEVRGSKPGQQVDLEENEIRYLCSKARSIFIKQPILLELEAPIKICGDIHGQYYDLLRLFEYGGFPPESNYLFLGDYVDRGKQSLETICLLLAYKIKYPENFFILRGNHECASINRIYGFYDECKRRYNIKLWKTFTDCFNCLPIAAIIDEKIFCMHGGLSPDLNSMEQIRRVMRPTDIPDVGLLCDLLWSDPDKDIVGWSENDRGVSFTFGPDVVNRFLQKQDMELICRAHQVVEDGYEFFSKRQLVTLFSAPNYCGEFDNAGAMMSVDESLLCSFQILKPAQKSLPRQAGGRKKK

T2: Reg1-N624S-FLAG (S. cerevisiae) (UniProt Q00816)
T2 sequence: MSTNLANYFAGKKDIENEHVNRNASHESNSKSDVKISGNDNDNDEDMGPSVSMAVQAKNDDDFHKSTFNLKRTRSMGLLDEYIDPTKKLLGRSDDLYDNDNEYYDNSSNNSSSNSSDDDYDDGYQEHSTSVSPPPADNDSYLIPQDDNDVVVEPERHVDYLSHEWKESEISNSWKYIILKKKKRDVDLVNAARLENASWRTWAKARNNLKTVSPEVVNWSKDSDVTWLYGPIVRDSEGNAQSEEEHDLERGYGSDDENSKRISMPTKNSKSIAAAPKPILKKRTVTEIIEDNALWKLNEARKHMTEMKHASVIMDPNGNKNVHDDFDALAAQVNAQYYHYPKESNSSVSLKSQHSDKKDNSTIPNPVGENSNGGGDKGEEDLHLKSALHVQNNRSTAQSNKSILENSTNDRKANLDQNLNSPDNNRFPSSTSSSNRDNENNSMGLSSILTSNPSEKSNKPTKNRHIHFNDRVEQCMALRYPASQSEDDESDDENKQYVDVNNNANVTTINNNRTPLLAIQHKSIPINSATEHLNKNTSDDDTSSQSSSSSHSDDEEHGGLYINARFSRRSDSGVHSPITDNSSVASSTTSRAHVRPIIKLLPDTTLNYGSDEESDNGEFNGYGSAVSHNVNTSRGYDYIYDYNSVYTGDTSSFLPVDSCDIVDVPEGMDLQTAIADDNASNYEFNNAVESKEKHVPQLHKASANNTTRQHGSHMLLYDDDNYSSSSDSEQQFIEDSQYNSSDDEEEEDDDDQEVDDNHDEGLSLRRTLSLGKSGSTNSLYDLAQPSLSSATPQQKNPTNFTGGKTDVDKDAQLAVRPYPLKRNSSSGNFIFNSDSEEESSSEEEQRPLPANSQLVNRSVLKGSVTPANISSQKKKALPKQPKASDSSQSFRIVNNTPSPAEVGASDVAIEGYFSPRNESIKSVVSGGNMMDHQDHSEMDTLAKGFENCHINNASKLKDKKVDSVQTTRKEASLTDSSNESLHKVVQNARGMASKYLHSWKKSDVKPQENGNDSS

B1: Snf1-GFP (protein, UniProt P06782 1-633)
chain: MSSNNNTNTAPANANSSHHHHHHHHHHHHHGHGGSNSTLNNPKSSLADGAHIGNYQIVKTLGEGSFGKVKLAYHTTTGQKVALKIINKKVLAKSDMQGRIEREISYLRLLRHPHIIKLYDVIKSKDEIIMVIEYAGNELFDYIVQRDKMSEQEARRFFQQIISAVEYCHRHKIVHRDLKPENLLLDEHLNVKIADFGLSNIMTDGNFLKTSCGSPNYAAPEVISGKLYAGPEVDVWSCGVILYVMLCRRLPFDDESIPVLFKNISNGVYTLPKFLSPGAAGLIKRMLIVNPLNRISIHEIMQDDWFKVDLPEYLLPPDLKPHPEEENENNDSKKDGSSPDNDEIDDNLVNILSSTMGYEKDEIYESLESSEDTPAFNEIRDAYMLIKENKSLIKDMKANKSVSDELDTFLSQSPPTFQQQSKSHQKSQVDHETAKQHARRMASAITQQRTYHQSPFMDQYKEEDSTVSILPTSLPQIHRANMLAQGSPAASKISPLVTKKSKTRWHFGIRSRSYPLDVMGEIYIALKNLGAEWAKPSEEDLWTIKLRWKYDIGNKTNTNEKIPDLMKMVIQLFQIETNNYLVDFKFDGWESSYGDDTTVSNISEDEMSTFSAYPFLHLTTKLIMELAVNSQSN

How the values were obtained:
[1] = target: T1, Reg1-P231S-FLAG (S. cerevisiae); assay: co-IP; Reg1-FLAG precipitated on anti-FLAG M2 agarose from native yeast lysates (50 mM HEPES pH 7.5, 150 mM NaCl, 0.5% Triton X-100, 1 mM DTT, 10% glycerol), 1 h at 4°C; blots with anti-FLAG, anti-GFP (Glc7, Snf1) and anti-14-3-3; steady state
[2] = target: T2, Reg1-N624S-FLAG (S. cerevisiae); assay: as above

Molecule | binding [1] | binding [2]
Glc7-GFP (from UniProt P32598 1-312) | binds | binds
B1 | binds | binds

From article PMC12520357 (2025)
